According to US20260062405A1, “RENEWABLE OILS: COMPOSITION, PROCESS OF MAKING AND FORMULATION” (RiKarbon, Inc., priority 2020, published 2026):
For at least one compound, name, drawing or mass did not settle the structure.

Assays:
Assay type in all cases: physicochemical
[1] = Kinematic viscosity (ASTM D445); settings: colorless crude product
Pour point (ASTM D97) = test: Pour point (ASTM D97)
[2] = Evaporation loss (ASTM D 972); settings: ASTM D 972, 6.5 hours at 100° C.
[3] = Viscosity index calculated from KV100 and KV40 (ASTM D2270)

Q: For `CCCCCCCCC(CCCC(C)C)C(CCCCC)CCCCC` (centres unmarked) [RKBA-26, 7-(4-Methylpentyl)-6-pentylpentadecane], which KV40 [1] is on record?
A: The KV40 was 31.1 cSt.

Q: What about the KV100 [1] of the same molecule?
A: Its KV100 is 4.9 cSt.

Q: And the “Pour Point” value (Pour point (ASTM D97))?
A: The value was −51 °C.

Q: And the “Evaporation Loss” value [2]?
A: Its value is 3.04%.

Q: What about the VI [3] of the same molecule?
A: Its VI is 70.
